The other results are listed elsewhere or left out.
target: OsWRKY34 (Oryza sativa, UniProt Q0JBA9 1-250); assay: protein-binding microarray (RPBM); PBS, 2% BSA, 51.3 ng/ul salmon testes DNA, 50 uM zinc acetate, 200 nM TF, 25 C, 1 h; high values mean tight binding; details: protein: recombinant; tags: N-terminal polyhistidine and DsRed monomer fusion (pET32a); label: CyDye5-dUTP incorporated in the synthesized complementary strand; 3' TTTTT single-stranded linker to array surface; dsDNA, one strand shown
Outline: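 The binding signal is fluorescence intensity per feature, in arbitrary units, read on an Axon 4000B scanner. Polyhistidine- and DsRed-tagged transcription factors (N-terminal fusions) from E. coli BL21-CodonPlus were purified on Ni–NTA and applied at 200 nM for 1 h at 25 °C to a double-stranded, BSA-blocked custom Agilent array in buffer with 50 µM zinc acetate.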

By UniProt entry, the sequences of proteins in these tests, tags left out.
UniProt Q0JBA9, entry or part of it: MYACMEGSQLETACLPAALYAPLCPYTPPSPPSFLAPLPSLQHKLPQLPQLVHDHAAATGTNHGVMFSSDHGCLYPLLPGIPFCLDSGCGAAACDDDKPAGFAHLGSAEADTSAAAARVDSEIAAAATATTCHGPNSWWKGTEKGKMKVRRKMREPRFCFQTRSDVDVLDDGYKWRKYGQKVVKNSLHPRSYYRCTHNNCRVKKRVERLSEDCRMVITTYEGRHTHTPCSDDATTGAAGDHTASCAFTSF

Sequence	binding signal
ACACACCGCGGGTTGGAGGAGGAGGAGGAGGAGGTAGGGGCGGAGTCACCTAGTGCAG	10500 fluorescence intensity (a.u.)
AACCGACCCACCTGACCTCCTGTCCTCGTCTCCACCACTTCGGAGTCACCTAGTGCAG	9420 fluorescence intensity (a.u.)
GTCGATCTGCTACTCCGATCCGCCGGGTCCGGGGCCCCTCCGGAGTCACCTAGTGCAG	9440 fluorescence intensity (a.u.)
GTAGTTTTGTACTATTCACGTTCAACGTTACGTCTTATTTCGGAGTCACCTAGTGCAG	9380 fluorescence intensity (a.u.)
CCGCTCGTAAAATGTCCCTTACACGAATCGCCACCATGCACGGAGTCACCTAGTGCAG	9350 fluorescence intensity (a.u.)
GCTTGGGTCTTGGGTCTTGGGTCCTTGGGGCTCTATATATCGGAGTCACCTAGTGCAG	15200 fluorescence intensity (a.u.)
CGCCGCCTTCCATCCCCGCCGCCACCACCGCCAATCGCCACGGAGTCACCTAGTGCAG	8770 fluorescence intensity (a.u.)
CTATTCTTGTGCATTCTGTTTTTTATCGTACATGCTACAGCGGAGTCACCTAGTGCAG	11800 fluorescence intensity (a.u.)
CAGCATTTCAGTTCGCTTTAGTTAGTACTACCACCTGCATCGGAGTCACCTAGTGCAG	9280 fluorescence intensity (a.u.)
GTCCGATCCGCTCATCTCGTCGTCGTCTTCGCCGCCGCCGCGGAGTCACCTAGTGCAG	8880 fluorescence intensity (a.u.)
CGACTTCTCGTGAAATTTTGCTGTCCATTTAATTATTTGTCGGAGTCACCTAGTGCAG	11300 fluorescence intensity (a.u.)
TTATCCAATTATATCTTTTAGTGTGTGTGTGTGTATATATCGGAGTCACCTAGTGCAG	8110 fluorescence intensity (a.u.)
ACTTTTATCGCGCCGTTGATCCCGCATCGGGCGGTCCAGACGGAGTCACCTAGTGCAG	8420 fluorescence intensity (a.u.)
GACCGTCTTTGTATTTTCGGATCGCACCGTGCATTTCTCGCGGAGTCACCTAGTGCAG	10700 fluorescence intensity (a.u.)
TCCTCTCCTTTCTGCTTTTCTCTCGCCTTTTATTTCTTCTCGGAGTCACCTAGTGCAG	8270 fluorescence intensity (a.u.)
TTTACTTGTTGTATTTATATTTGTGCAATTTACATTTCTACGGAGTCACCTAGTGCAG	8810 fluorescence intensity (a.u.)
TTGCTCTTGGTCATTTTTATTAAGTCCCCGTTATAATTTTCGGAGTCACCTAGTGCAG	9890 fluorescence intensity (a.u.)
GGTGTAATTAGTATGGTGTTTTAATCGATACATGTATTGCCGGAGTCACCTAGTGCAG	10400 fluorescence intensity (a.u.)
CACATGCCTTTCAAGTGATCCACACGCCCTATCGGATCGACGGAGTCACCTAGTGCAG	9350 fluorescence intensity (a.u.)
TTACCTAATTAGTGTGTAATTTACACCCGTCTATTATTATCGGAGTCACCTAGTGCAG	8920 fluorescence intensity (a.u.)
ACTCTTATTGTTCAAATGAAAATGCTAGGGGTATAACTGCCGGAGTCACCTAGTGCAG	8340 fluorescence intensity (a.u.)

Sequence	binding signal
TGGGGTTTTGATGGAAGTACAATTCTAGCTATGTTCTTGACGGAGTCACCTAGTGCAG	10600 fluorescence intensity (a.u.)
TTCTATGGCCGTTGATGTAGGGGTGCTTGTGTGGATGATGCGGAGTCACCTAGTGCAG	11400 fluorescence intensity (a.u.)
CGCCGTCTTCAACTTGCTGGTCTACCCGCTCGCTGCCATCCGGAGTCACCTAGTGCAG	9480 fluorescence intensity (a.u.)
GGGAAGGGGTTTTTGGCGTCACTCGCTTCTCTCTCTCCCCCGGAGTCACCTAGTGCAG	10400 fluorescence intensity (a.u.)
AGGGAGGGTTTTTTTTGTTAGGGCGGCAAGGGGCCTCCATCGGAGTCACCTAGTGCAG	15900 fluorescence intensity (a.u.)
CACTAATTGTTGATTTGCTTTGCTTTTGCTGTTTTTACAACGGAGTCACCTAGTGCAG	12700 fluorescence intensity (a.u.)
GTTTCTGTTTTGCTAGATCTAGATGCTTTGCATGTTTGTTCGGAGTCACCTAGTGCAG	13300 fluorescence intensity (a.u.)
CATATTAGTATATCTTGTTGATTTTTTTTATTTTTTTCATCGGAGTCACCTAGTGCAG	8140 fluorescence intensity (a.u.)
ACTTGTGGGCCCCATGTACTTTTTTTTTTTTTTTTGCTGACGGAGTCACCTAGTGCAG	8840 fluorescence intensity (a.u.)
ACATGCTTTTTAACCAAACCCCGTGTCCAATATACACAGTCGGAGTCACCTAGTGCAG	8900 fluorescence intensity (a.u.)
GATCCTATCATTTTCAACGATGTTAAATCGTCACAGGCTTCGGAGTCACCTAGTGCAG	8310 fluorescence intensity (a.u.)
GGGGATGCAGTCGGCGGGCGGCGGGCTGCTTTAAGGAAGACGGAGTCACCTAGTGCAG	12600 fluorescence intensity (a.u.)
TACCGTCGGTTGACTATGTGTTGACCGTTAACTCTCAAGTCGGAGTCACCTAGTGCAG	12500 fluorescence intensity (a.u.)
CCTAGCGCCGGTCCTCCTATTTTTCCATGCGGTTCCACTTCGGAGTCACCTAGTGCAG	8050 fluorescence intensity (a.u.)
CATTACTTTTTATAACTTTGCACTACGATACAGTAGCAAACGGAGTCACCTAGTGCAG	8320 fluorescence intensity (a.u.)
ATCTCCATTGCTCTCCCATATGGTGTCTTCCCCTGCTTTTCGGAGTCACCTAGTGCAG	8920 fluorescence intensity (a.u.)
CTTCCCACGCCAACGCCTCCGCTCCCGCTCGTACCACGCGCGGAGTCACCTAGTGCAG	8090 fluorescence intensity (a.u.)
ATTCTAAATTTCTATTATTTCCTAATTGTGTTTCTATATGCGGAGTCACCTAGTGCAG	9600 fluorescence intensity (a.u.)
TCTTATATTTTTCTTATTTCTATGTTCACTCTCGGTATATCGGAGTCACCTAGTGCAG	11000 fluorescence intensity (a.u.)
AACTTCCAACTTTTCCATCGTATCAAAACTTTCCTACATACGGAGTCACCTAGTGCAG	9740 fluorescence intensity (a.u.)
AAACTAATTTTCTGTGACACTTCCAAGTGCATACCGGAGTCGGAGTCACCTAGTGCAG	8660 fluorescence intensity (a.u.)

Exported bar-delimited: entries from further up.
Sequence | binding signal
CGCCGCCTTCCATCCCCGCCGCCACCACCGCCAATCGCCACGGAGTCACCTAGTGCAG | 8770 fluorescence intensity (a.u.)
GTCCGATCCGCTCATCTCGTCGTCGTCTTCGCCGCCGCCGCGGAGTCACCTAGTGCAG | 8880 fluorescence intensity (a.u.)
CGACTTCTCGTGAAATTTTGCTGTCCATTTAATTATTTGTCGGAGTCACCTAGTGCAG | 11300 fluorescence intensity (a.u.)
TTATCCAATTATATCTTTTAGTGTGTGTGTGTGTATATATCGGAGTCACCTAGTGCAG | 8110 fluorescence intensity (a.u.)
CATATTAGTATATCTTGTTGATTTTTTTTATTTTTTTCATCGGAGTCACCTAGTGCAG | 8140 fluorescence intensity (a.u.)
ACATGCTTTTTAACCAAACCCCGTGTCCAATATACACAGTCGGAGTCACCTAGTGCAG | 8900 fluorescence intensity (a.u.)

Further entries

Sequence	binding signal
GTTTATGTGTCACATCCTCCAAAATCACTTATATTATATTCGGAGTCACCTAGTGCAG	10500 fluorescence intensity (a.u.)
TCAGCATTGTTTAGCTTTACGCCCACCTGGATCACAATGTCGGAGTCACCTAGTGCAG	8160 fluorescence intensity (a.u.)
CGAACCCGACTCCCTCCACAATTCCGCTAGTCCGAGTCAACGGAGTCACCTAGTGCAG	8440 fluorescence intensity (a.u.)
GACCTCTGCCAGCGGTACAAACATTTCCGTTGTTCAATAACGGAGTCACCTAGTGCAG	8620 fluorescence intensity (a.u.)
CAGGCAGAGTAGCTCTTTTTGTTTTTGTTGGGACCTAATACGGAGTCACCTAGTGCAG	12800 fluorescence intensity (a.u.)
GTTTTGACCCCATATGTTTTTCCTTGACCCTGAACACTTCCGGAGTCACCTAGTGCAG	8960 fluorescence intensity (a.u.)
CTACAAGCCTTCAACCACATGACTAGAGGTGTTTTTTTTTCGGAGTCACCTAGTGCAG	8170 fluorescence intensity (a.u.)
AATGCCATCTATTACTACTCCCTCGCACCTCATGTGTTTGCGGAGTCACCTAGTGCAG	10800 fluorescence intensity (a.u.)
ATAAGTCGTTTGACTCTTTTTTAATTAAACTTCTTTTAAGCGGAGTCACCTAGTGCAG	8790 fluorescence intensity (a.u.)
CGCCACCCACACTGCGCAAGCGCAACGCATATGCCAAATCCGGAGTCACCTAGTGCAG	9390 fluorescence intensity (a.u.)
CTCTCAGCCGGTCTATCAATTCCCCTTTCTGATACAATAACGGAGTCACCTAGTGCAG	9570 fluorescence intensity (a.u.)
ACCCCACCACTATCATCGTGCCTGCATCTGCATGTGTGTACGGAGTCACCTAGTGCAG	8240 fluorescence intensity (a.u.)
GGGCGACTTCTTTATCAACTACGAACCACAACCATTGCAGCGGAGTCACCTAGTGCAG	8300 fluorescence intensity (a.u.)
TACCACCACTGTTCGTTTCGTTTGTTGGGTTTCGGTCATCCGGAGTCACCTAGTGCAG	8360 fluorescence intensity (a.u.)
TGAGTCTTTCTTCTTTGCCATATGGACTTAATATATCTTCCGGAGTCACCTAGTGCAG	10800 fluorescence intensity (a.u.)
TATTTTCCAACATTTGGTTTTAAATGCTAACGATACAAATCGGAGTCACCTAGTGCAG	8140 fluorescence intensity (a.u.)
TCAATTTTTATGTGCTTGTGTGGTACGTGTCGGTGGTCTACGGAGTCACCTAGTGCAG	10700 fluorescence intensity (a.u.)
TCCATTTGTTTGCATCTTTTTCAGTCACACTCAACTTTATCGGAGTCACCTAGTGCAG	12100 fluorescence intensity (a.u.)
CTCAATTAATCATGCGCTAATAGCTCACATCGTTTTACGTCGGAGTCACCTAGTGCAG	10500 fluorescence intensity (a.u.)
GTGTGTTTTTCTGCCATTTTTCGCCTTAGGTCTTCGCAATCGGAGTCACCTAGTGCAG	12300 fluorescence intensity (a.u.)
CAATGCCCATCTTGCCCATCGAGCTATATCACCCGAGGTTCGGAGTCACCTAGTGCAG	8980 fluorescence intensity (a.u.)

Sequence	binding signal
GTTGACCCGCAGTTCCCCTTTGTTTTCCACGTGTTTCTTCCGGAGTCACCTAGTGCAG	9740 fluorescence intensity (a.u.)
CAGTTTTCTCTTGGCACCAACGCGCGGTTATTTATGTTGACGGAGTCACCTAGTGCAG	8590 fluorescence intensity (a.u.)
GCACGACGCATACATATCTCACGCGCCCTTTTTATCTGCTCGGAGTCACCTAGTGCAG	12900 fluorescence intensity (a.u.)
CACATGTTATTTCTATCTCATTTTGCATGAAACATTTAATCGGAGTCACCTAGTGCAG	9840 fluorescence intensity (a.u.)
ACCCACGCCGCCGCCGCCGTCTCTTCCCTCCCTTCTCCGCCGGAGTCACCTAGTGCAG	8450 fluorescence intensity (a.u.)
GGGAGAAGGTGATGGACACGTGCCTGAAGCGCGAGCGAGTCGGAGTCACCTAGTGCAG	8080 fluorescence intensity (a.u.)
TTGCCGCCACCTCTCCCTACAGCTGTTCGACTACGCCATTCGGAGTCACCTAGTGCAG	14900 fluorescence intensity (a.u.)
TTGAATTTTCAGTTTTCTTGTGCGTGTTTCCTTGTCATTTCGGAGTCACCTAGTGCAG	9140 fluorescence intensity (a.u.)
ATACTGTACACCGGCGCTTCTCACCGACAGATCGGGCCCACGGAGTCACCTAGTGCAG	9090 fluorescence intensity (a.u.)
ATCCAACTAACACACGCTGCTTCCTTTGCTTTCCTATTCTCGGAGTCACCTAGTGCAG	9920 fluorescence intensity (a.u.)
AATTTTAATTAATTATGTGCTAATGATTTTCTCCTTTTTGCGGAGTCACCTAGTGCAG	8240 fluorescence intensity (a.u.)
TTCCTTTATCTTGCTTTATCTTGGTGGCCTTTTCTCCCTTCGGAGTCACCTAGTGCAG	8250 fluorescence intensity (a.u.)
TCCTTGTGCGCCTGAGTATCCCTTGCTGCCAGATCACTTACGGAGTCACCTAGTGCAG	9120 fluorescence intensity (a.u.)
ATACTGATCGATCGTCTAGCTAGCTTCTTCTACCTCGCATCGGAGTCACCTAGTGCAG	9170 fluorescence intensity (a.u.)
TTCCCTCTGTTCAGACTATAAGTCGTTTTAATTTTGATTACGGAGTCACCTAGTGCAG	8260 fluorescence intensity (a.u.)
GTTTTTCTCTTTTTTTTGCTTGATGATTTCCTTAGCTGATCGGAGTCACCTAGTGCAG	12900 fluorescence intensity (a.u.)
TTACAGGTATTAAACATATTTCACCTACGTATCTCTTCGCCGGAGTCACCTAGTGCAG	9620 fluorescence intensity (a.u.)
ACTTTTTTGGTAGCCATCCGTTATCTCGACACAGCTCCGACGGAGTCACCTAGTGCAG	9100 fluorescence intensity (a.u.)
AAAGTTATTTGGTTGGTTGTATTGGTTTAGCATGACTAGTCGGAGTCACCTAGTGCAG	9390 fluorescence intensity (a.u.)
GCCACCATCTCGCGCCACGCCTGCCCGTCGAGGACACCGACGGAGTCACCTAGTGCAG	10100 fluorescence intensity (a.u.)
CATTCGCCGCTTCACATCGCCATGGCCCTCAAAAGGTCGACGGAGTCACCTAGTGCAG	9630 fluorescence intensity (a.u.)
